# Assay results taken from patent publication US20070161123A1, “DETERMINATION OF CONCENTRATION OF FK778 BY COMPETITIVE IMMUNOASSAY” (priority 2006, published 2007).
# For at least one compound, name, drawing or mass did not settle the structure.
# System: antibody to FK778
# Assay: Interference of prescription drugs in the […] FK778 competitive chemiluminescent immunoassay
# Type: binding
# Experimental: FK778 assays were performed by an […]® instrument, commercially available from Abbott Laboratories, Abbott Park, Ill., according to the following procedure. See also U.S. Pat. Nos. 5,795,784 and 5,856,194, both of which are incorporated herein by reference. A serum sample (10 μL) was diluted with Line Diluent at a ratio of 1 part sample to 20 parts Line Diluent. A portion of the diluted sample (10 μL) was mixed with 90 μL of Conjugate Reagent and 50 μL of Line Diluent. Magnetic Microparticle Reagent (50 μL) and Bihapten Tracer Reagent (50 μL) were added to the foregoing mixture after a period of six (6) seconds. The resulting mixture (250 μL) was incubated for 25 minutes. The microparticles were washed three (3) times with 1 mL of Line Diluent. The magnetic particles were attracted to a magnet at the same time that they were being washed. The washed microparticles were treated with Pretrigger Reagent (100 μL acidic hydrogen peroxide). Finally, the chemiluminescent reaction was triggered by addition of Trigger Reagent (alkaline detergent solution (300 μL)). Measurement of light generated was carried out by means of a photomultiplier tube.
# This example illustrates interference with prescription drugs. Interference was tested for 44 of 45 prescription drugs at levels recommended in NCCLS document EP-7P. Interference was tested in the presence of FK778 and absence of FK778 in the sample. Interference was defined as greater than 5 μg/mL (without FK778) or greater than 10% (with FK778). […] Both interferences were expected; fluorescein because of its competition with the FK778-fluorescein bihapten tracer and A77,1726 because of its similarity in structure to FK778.
# Fluorescein is used in in vivo diagnostic procedures to measure blood flow in the eye and is not expected to be present in patients undergoing a transplant. 10 Nevertheless, fluorescein was tested more thoroughly to estimate the magnitude of the interference at concentrations lower than 400 μg/mL.
# Additional testing was also carried out with A77, 1726 to assess the cross-reactivity of this molecule in the presence and absence of FK778.
compound,measurement,setting,value
O=C1OC2(c3ccc(O)cc3Oc3cc(O)ccc32)c2ccccc21 [Fluorescein],Interference,defined as greater than 5 μg/mL (without FK778) or greater than 10% (with FK778),Interference was observed
same,% Fluorescein interference,"fluorescein 30 μg/mL, Med FK778",8%
same,Fluorescein measured as FK778,"fluorescein 30 μg/mL, Med FK778 (~70 μg/mL)",72.54 µg/mL
same,% Fluorescein interference,"fluorescein 50 μg/mL, High FK778",14%
same,Fluorescein measured as FK778,"fluorescein 50 μg/mL, High FK778 (~125 μg/mL)",161.46 µg/mL
same,% Fluorescein interference,"fluorescein 50 μg/mL, Low FK778",19%
same,Fluorescein measured as FK778,"fluorescein 50 μg/mL, Low FK778 (~20 μg/mL)",24.58 µg/mL
same,% Fluorescein interference,"fluorescein 50 μg/mL, Med FK778",9%
same,Fluorescein measured as FK778,"fluorescein 50 μg/mL, Med FK778 (~70 μg/mL)",79.98 µg/mL
same,% Fluorescein interference,"fluorescein 100 μg/mL, High FK778",26%
same,Fluorescein measured as FK778,"fluorescein 100 μg/mL, High FK778 (~125 μg/mL)",168.83 µg/mL
same,% Fluorescein interference,"fluorescein 100 μg/mL, Low FK778",38%
same,Fluorescein measured as FK778,"fluorescein 100 μg/mL, Low FK778 (~20 μg/mL)",27.8 µg/mL
same,% Fluorescein interference,"fluorescein 100 μg/mL, Med FK778",28%
same,Fluorescein measured as FK778,"fluorescein 100 μg/mL, Med FK778 (~70 μg/mL)",87.86 µg/mL
same,% Fluorescein interference,"fluorescein 200 μg/mL, High FK778",51%
same,Fluorescein measured as FK778,"fluorescein 200 μg/mL, High FK778 (~125 μg/mL)",190.11 µg/mL
same,% Fluorescein interference,"fluorescein 200 μg/mL, Low FK778",69%
same,Fluorescein measured as FK778,"fluorescein 200 μg/mL, Low FK778 (~20 μg/mL)",33.42 µg/mL
same,% Fluorescein interference,"fluorescein 200 μg/mL, Med FK778",53%
same,Fluorescein measured as FK778,"fluorescein 200 μg/mL, Med FK778 (~70 μg/mL)",103.68 µg/mL
same,% Fluorescein interference,"fluorescein 400 μg/mL, High FK778",101%
same,Fluorescein measured as FK778,"fluorescein 400 μg/mL, High FK778 (~125 μg/mL)",220.8 µg/mL
same,% Fluorescein interference,"fluorescein 400 μg/mL, Low FK778",118%
same,Fluorescein measured as FK778,"fluorescein 400 μg/mL, Low FK778 (~20 μg/mL)",44.04 µg/mL
same,% Fluorescein interference,"fluorescein 400 μg/mL, Med FK778",100%
same,Fluorescein measured as FK778,"fluorescein 400 μg/mL, Med FK778 (~70 μg/mL)",129.72 µg/mL
